Results: the supplement of paper PMC6078165
Values are relative to the signal before dosing, not to a vehicle control; the signal also falls without drug.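 Labels refer to human fibroblasts, largely primary: uterine (C12385, HUF), lung (H6013), bone (Hs27A), adrenal (HADF), skin (WS1), plus mammary HMF and breast cancer-associated Hs343T. Cancer lines are basal-like or mesenchymal-like triple-negative breast cancer. The paper counts as hits responses shifting over 3x the replicate standard deviation. The tissue of the other fibroblasts is not given here.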

Test system: MDAMB468
Experiment: relative JC-1 red fluorescence (viability) vs pre-drug, coculture with fibroblast (fraction); higher = more viable cancer cells
Method: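 JC-1 labelled TNBC cells cocultured 1:1 (1,500 cells each) with CellTrace Violet stained primary or stromal fibroblasts in 384-well plates in FluoroBrite medium, treated with one of 42 anticancer drugs at 0.1, 1, 10 or 100 uM. JC-1 red fluorescence (mitochondrial integrity in cancer cells only) was read by plate reader every 8 h for 72 h. Values are normalised to each well's pre-drug value. The stock of one drug was tenfold lower, so its dose labels may be too high.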

CS(=O)(=O)CCNCc1ccc(-c2ccc3ncnc(Nc4ccc(OCc5cccc(F)c5)c(Cl)c4)c3c2)o1 [Lapatinib]
relative JC-1 red fluorescence
Settings	8 h	16 h	24 h	32 h	40 h	48 h	56 h	64 h	72 h
10 µM, coculture fibroblast: C12385	0.687	0.5833	0.548	0.515	0.502	0.50263	0.506	0.525	0.55
10 µM, coculture fibroblast: H6013	0.746	0.69	0.669	0.711	0.691	0.697	0.698	0.704	0.736
10 µM, coculture fibroblast: H6019	0.854	0.797	0.81	0.84	0.864	0.846	0.832	0.816	0.813
10 µM, coculture fibroblast: H6076	0.8042	0.706	0.613	0.605	0.575	0.585	0.569	0.561	0.606
10 µM, coculture fibroblast: H6231	0.867	0.902	0.848	0.789	0.8686	0.869	0.849	0.863	0.917
10 µM, coculture fibroblast: HADF	0.681	0.606	0.561	0.572	0.529	0.526	0.518	0.498	0.485
10 µM, coculture fibroblast: HCFa	0.773	0.707	0.701	0.754	0.733	0.756	0.757	0.775	0.794
10 µM, coculture fibroblast: HCPF	0.884	0.946	0.934	0.9118	0.87146	0.8384	0.7911	0.7725	0.749
10 µM, coculture fibroblast: HHSteC	0.754	0.723	0.707	0.715	0.684	0.701	0.673	0.662	0.681
10 µM, coculture fibroblast: HMF	0.893	0.962	0.939	0.911	0.834	0.8301	0.7716	0.751	0.731
10 µM, coculture fibroblast: HPFa	0.819	0.781	0.791	0.797	0.806	0.843	0.833	0.871	0.858
10 µM, coculture fibroblast: HUF	0.757	0.627	0.557	0.529	0.505	0.497	0.511	0.538	0.55
10 µM, coculture fibroblast: Hs5	0.823	0.714	0.59	0.57	0.523	0.505	0.476	0.466	0.4956
10 µM, coculture fibroblast: Hs27A	0.695	0.568	0.509	0.507	0.468	0.475	0.464	0.4593	0.48026
10 µM, coculture fibroblast: Hs343T	0.867	0.7284	0.73	0.724	0.67	0.717	0.719	0.728	0.713
10 µM, coculture fibroblast: WS1	0.6685	0.56931	0.562	0.5588	0.544	0.5287	0.5437	0.536	0.5497
100 µM, coculture fibroblast: C12385	0.928	0.86211	0.872	0.81209	0.7789	0.751	0.709	0.666	0.649
100 µM, coculture fibroblast: H6013	0.969	0.864	0.9699	0.9662	0.9262	0.917	0.844	0.805	0.736
100 µM, coculture fibroblast: H6019	0.85	0.857	0.823	0.759	0.721	0.7	0.662	0.628	0.596
100 µM, coculture fibroblast: H6076	0.908	0.888	0.782	0.803	0.856	0.823	0.778	0.744	0.762
100 µM, coculture fibroblast: H6231	0.878	0.943	0.934	0.928	0.871	0.864	0.816	0.813	0.80314
100 µM, coculture fibroblast: HADF	0.93	0.924	0.872	0.8681	0.824	0.8	0.7486	0.716	0.67
100 µM, coculture fibroblast: HCFa	0.907	0.925	0.89	0.895	0.847	0.839	0.809	0.786	0.746
100 µM, coculture fibroblast: HCPF	0.892	0.975	0.897	0.88	0.8	0.771	0.736	0.726	0.711
100 µM, coculture fibroblast: HHSteC	0.938	0.948	0.936	0.926	0.907	0.925	0.864	0.846	0.808
100 µM, coculture fibroblast: HMF	0.9	0.911	0.98	0.932	0.862	0.852	0.808	0.788	0.764
100 µM, coculture fibroblast: HPFa	0.865	0.932	0.892	0.854	0.825	0.823	0.753	0.73	0.655
100 µM, coculture fibroblast: HUF	0.943	0.873	0.84	0.786	0.755	0.731	0.696	0.683	0.667
100 µM, coculture fibroblast: Hs5	0.915	0.884	0.9975	0.97494	0.8985	0.885	0.8703	0.865	0.9013
100 µM, coculture fibroblast: Hs27A	0.8907	0.898	0.853	0.8741	0.813	0.796	0.747	0.719	0.694
100 µM, coculture fibroblast: Hs343T	0.83	0.843	0.855	0.834	0.768	0.75	0.709	0.693	0.668
100 µM, coculture fibroblast: WS1	0.886	0.851	0.748	0.794	0.748	0.777	0.759	0.649	0.621
